{"source": "paper PMC7472703", "about": "“DNA methylation suppresses chitin degradation and promotes the wing development by inhibiting Bmara-mediated chitinase expression in the silkworm, Bombyx mori”", "biological_target": "T1, Bmara-FLAG (Bombyx mori) (UniProt A0A8R1WJM2)", "T1 sequence (looked up, limits assumed)": "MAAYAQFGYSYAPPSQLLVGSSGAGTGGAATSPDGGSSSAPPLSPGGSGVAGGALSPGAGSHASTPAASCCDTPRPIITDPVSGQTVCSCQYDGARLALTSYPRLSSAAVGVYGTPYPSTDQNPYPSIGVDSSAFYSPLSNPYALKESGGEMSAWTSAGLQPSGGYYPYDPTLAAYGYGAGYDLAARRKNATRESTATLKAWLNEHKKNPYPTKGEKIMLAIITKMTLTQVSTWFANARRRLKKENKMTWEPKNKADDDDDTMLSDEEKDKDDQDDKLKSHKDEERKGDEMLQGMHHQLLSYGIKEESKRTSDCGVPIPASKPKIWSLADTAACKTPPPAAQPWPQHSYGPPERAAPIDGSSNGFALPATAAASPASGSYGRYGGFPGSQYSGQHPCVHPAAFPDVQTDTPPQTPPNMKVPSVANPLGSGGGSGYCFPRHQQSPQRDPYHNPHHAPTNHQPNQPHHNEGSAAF", "assay": "pull-down", "conditions": "10 mM Mg acetate, 5 mM EGTA, anti-FLAG Western blot, Pull-down: 10 mM HEPES pH 7.6, 100 mM K glutamate, 80 mM KCl, 2.5 mM DTT, 3.5% glycerol, 0.001% NP-40, 4 h 4 C, protein in an extract, protein details: C-terminal FLAG, label: 5' biotin", "note": "The exact form of at least one protein or probe is not confirmed. At least one result comes from cells or an extract, where the contact may be indirect. Protein sequences can lack the tags named with them."}
{"sequence": "TTCAGTCCACGGCTGTCTTTCAACACGGA (double strand)", "values": [{"measurement": "binding result", "value": "binds"}]}
